Article PMC5013148
The exact form of at least one protein or probe is not confirmed. At least one result comes from cells or an extract, where the contact may be indirect. For some assays here: Negatives hold for the conditions tested. Protein sequences can lack the tags named with them.

Experiments:
[1] = target: T1, lyc IRF7 (Larimichthys crocea) (UniProt E5D5L7); assay: EMSA; settings: Beyotime EMSA/Gel-Shift kit buffer (composition not given), 25 C, 20 min, HEK293T lysate, biotin probe, 100x unlabeled competitor, 4% native PAGE; protein in a lysate after overexpression; protein details: HA (pCMV-HA); label: biotin
T1 sequence (looked up, limits assumed): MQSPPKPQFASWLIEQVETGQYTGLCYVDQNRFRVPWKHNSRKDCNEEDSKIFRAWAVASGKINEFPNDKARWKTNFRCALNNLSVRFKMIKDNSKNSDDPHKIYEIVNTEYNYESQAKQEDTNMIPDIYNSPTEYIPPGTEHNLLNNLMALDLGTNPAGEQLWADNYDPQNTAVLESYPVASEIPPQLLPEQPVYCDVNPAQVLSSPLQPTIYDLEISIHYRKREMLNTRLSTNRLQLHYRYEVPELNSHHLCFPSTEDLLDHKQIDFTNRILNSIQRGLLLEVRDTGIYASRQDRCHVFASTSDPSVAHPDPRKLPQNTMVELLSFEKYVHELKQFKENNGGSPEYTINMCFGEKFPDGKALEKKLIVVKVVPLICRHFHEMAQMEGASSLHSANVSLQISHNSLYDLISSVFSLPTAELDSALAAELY

[2] = target: T2, lyc IRF3 (Larimichthys crocea) (UniProt H9C809); assay: EMSA; settings: Beyotime EMSA/Gel-Shift kit buffer (composition not given), 25 C, 20 min, HEK293T lysate, biotin probe, 100x unlabeled competitor, 4% native PAGE; protein in a lysate after overexpression; protein details: HA (pCMV-HA); label: biotin
T2 sequence (looked up, limits assumed): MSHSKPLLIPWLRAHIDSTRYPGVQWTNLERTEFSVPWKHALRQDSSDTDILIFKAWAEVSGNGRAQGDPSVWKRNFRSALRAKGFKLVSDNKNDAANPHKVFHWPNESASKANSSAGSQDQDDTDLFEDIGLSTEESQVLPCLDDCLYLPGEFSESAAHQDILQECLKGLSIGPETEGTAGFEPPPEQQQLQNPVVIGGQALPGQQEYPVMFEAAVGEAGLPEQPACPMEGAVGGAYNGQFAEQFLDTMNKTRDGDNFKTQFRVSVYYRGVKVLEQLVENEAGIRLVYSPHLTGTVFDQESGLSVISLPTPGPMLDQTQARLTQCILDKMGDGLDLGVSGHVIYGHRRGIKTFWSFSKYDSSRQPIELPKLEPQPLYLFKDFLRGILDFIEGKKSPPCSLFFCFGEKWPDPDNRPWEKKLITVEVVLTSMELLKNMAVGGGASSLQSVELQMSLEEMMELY

Sequence | binding result [1] | binding result [2]
CTTTGAATGGTAAAAGACT (double strand) [IFNhP(-171~-153) IRF3 site 1 probe WT] | no binding | binds
TCCTGGAATATGAAATGTCACAA (double strand) [IFNdP(-306~-273) IRF7 site 1 probe WT] | binds | 
TGAGGAAAATGAAATAGGTG (double strand) [IFNdP(-76~-57) IRF3 site probe WT] | no binding | binds
